Measured values reported in article PMC8749979.
No constants are given. Whether binding was seen depends on the method and setting. Binding seen in cells or lysates may run through a third protein. Some binding calls cover weakened binding; strength is not graded here.

Amino acid sequences for entries named in this document (tags omitted).
UniProt Q07666: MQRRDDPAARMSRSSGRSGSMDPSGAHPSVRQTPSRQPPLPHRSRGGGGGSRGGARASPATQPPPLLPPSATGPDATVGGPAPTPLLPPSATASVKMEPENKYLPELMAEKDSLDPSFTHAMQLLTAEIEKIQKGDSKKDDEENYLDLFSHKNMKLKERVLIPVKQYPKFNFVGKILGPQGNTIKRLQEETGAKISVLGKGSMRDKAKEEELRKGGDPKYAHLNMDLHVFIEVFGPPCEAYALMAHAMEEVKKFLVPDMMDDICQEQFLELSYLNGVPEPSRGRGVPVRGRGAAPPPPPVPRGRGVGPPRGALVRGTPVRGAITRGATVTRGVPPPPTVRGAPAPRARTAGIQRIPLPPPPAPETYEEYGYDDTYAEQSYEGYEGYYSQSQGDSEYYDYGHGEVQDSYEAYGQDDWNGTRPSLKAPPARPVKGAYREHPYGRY

Key:
[1] = target: SRC associated in mitosis of 68 kDa (SAM68) (human (endogenous in CL1-5)) (UniProt Q07666); experiment: co-IP; lysates of untreated CL1-5 cells (no cross-linker); lysis buffer 150 mM NaCl, 0.5% sodium deoxycholate, 1% NP-40, 0.1% SDS; 1 mg lysate with 1 ug anti-SAM68, anti-OGT or control IgG and protein G magnetic beads, 4 °C overnight; Western blot
[2] = target: SRC associated in mitosis of 68 kDa (SAM68) (human (endogenous in CL1-5)) (UniProt Q07666); experiment: co-IP + cross-linking; CL1-5 cells treated with 1 mM cross-linker DSP for 15 min at RT before lysis; same lysis buffer; immunoprecipitation with anti-SAM68, protein G magnetic beads, 4 °C overnight; Western blot

- binding [1]: binds weakly
- binding [2]: binds
B1: O-GlcNAc transferase (OGT) (enzyme, UniProt O15294 1-1046)
chain: MASSVGNVADSTEPTKRMLSFQGLAELAHREYQAGDFEAAERHCMQLWRQEPDNTGVLLLLSSIHFQCRRLDRSAHFSTLAIKQNPLLAEAYSNLGNVYKERGQLQEAIEHYRHALRLKPDFIDGYINLAAALVAAGDMEGAVQAYVSALQYNPDLYCVRSDLGNLLKALGRLEEAKACYLKAIETQPNFAVAWSNLGCVFNAQGEIWLAIHHFEKAVTLDPNFLDAYINLGNVLKEARIFDRAVAAYLRALSLSPNHAVVHGNLACVYYEQGLIDLAIDTYRRAIELQPHFPDAYCNLANALKEKGSVAEAEDCYNTALRLCPTHADSLNNLANIKREQGNIEEAVRLYRKALEVFPEFAAAHSNLASVLQQQGKLQEALMHYKEAIRISPTFADAYSNMGNTLKEMQDVQGALQCYTRAIQINPAFADAHSNLASIHKDSGNIPEAIASYRTALKLKPDFPDAYCNLAHCLQIVCDWTDYDERMKKLVSIVADQLEKNRLPSVHPHHSMLYPLSHGFRKAIAERHGNLCLDKINVLHKPPYEHPKDLKLSDGRLRVGYVSSDFGNHPTSHLMQSIPGMHNPDKFEVFCYALSPDDGTNFRVKVMAEANHFIDLSQIPCNGKAADRIHQDGIHILVNMNGYTKGARNELFALRPAPIQAMWLGYPGTSGALFMDYIITDQETSPAEVAEQYSEKLAYMPHTFFIGDHANMFPHLKKKAVIDFKSNGHIYDNRIVLNGIDLKAFLDSLPDVKIVKMKCPDGGDNADSSNTALNMPVIPMNTIAEAVIEMINRGQIQITINGFSISNGLATTQINNKAATGEEVPRTIIVTTRSQYGLPEDAIVYCNFNQLYKIDPSTLQMWANILKRVPNSVLWLLRFPAVGEPNIQQYAQNMGLPQNRIIFSPVAPKEEHVRRGQLADVCLDTPLCNGHTTGMDVLWAGTPMVTMPGETLASRVAASQLTCLGCLELIAKNRQEYEDIAVKLGTDLEYLKKVRGKVWKQRISSPLFNTKQYTMELERLYLQMWEHYAAGNKPDHMIKPVEVTESA
